# The list shows a part of the results.
# Chains of the proteins cited; added tags and fusions are not shown. Lines headed by an entry give the natural chain unless they say otherwise; changes in a name come on top.
# UniProt Q08AE8, whole entry, looked up: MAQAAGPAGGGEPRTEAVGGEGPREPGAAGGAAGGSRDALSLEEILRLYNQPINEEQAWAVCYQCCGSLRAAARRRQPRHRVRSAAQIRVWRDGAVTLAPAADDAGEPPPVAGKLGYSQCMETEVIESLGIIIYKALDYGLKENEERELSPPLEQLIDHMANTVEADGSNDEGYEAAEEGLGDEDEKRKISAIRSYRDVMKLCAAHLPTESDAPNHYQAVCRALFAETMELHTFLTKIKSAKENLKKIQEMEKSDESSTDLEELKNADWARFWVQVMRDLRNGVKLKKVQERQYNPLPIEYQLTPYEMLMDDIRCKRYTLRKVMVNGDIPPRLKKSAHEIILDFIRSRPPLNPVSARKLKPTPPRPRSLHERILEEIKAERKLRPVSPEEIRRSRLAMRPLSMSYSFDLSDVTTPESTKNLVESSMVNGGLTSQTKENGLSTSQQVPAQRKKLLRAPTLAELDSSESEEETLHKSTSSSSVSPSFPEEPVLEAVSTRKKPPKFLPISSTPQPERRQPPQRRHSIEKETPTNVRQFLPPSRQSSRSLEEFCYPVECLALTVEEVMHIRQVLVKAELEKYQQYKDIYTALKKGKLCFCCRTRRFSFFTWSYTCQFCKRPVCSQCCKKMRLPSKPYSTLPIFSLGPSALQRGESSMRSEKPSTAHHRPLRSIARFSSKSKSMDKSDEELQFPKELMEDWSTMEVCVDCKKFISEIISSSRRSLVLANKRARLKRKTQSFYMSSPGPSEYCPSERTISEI
# UniProt Q96T58, whole entry, looked up: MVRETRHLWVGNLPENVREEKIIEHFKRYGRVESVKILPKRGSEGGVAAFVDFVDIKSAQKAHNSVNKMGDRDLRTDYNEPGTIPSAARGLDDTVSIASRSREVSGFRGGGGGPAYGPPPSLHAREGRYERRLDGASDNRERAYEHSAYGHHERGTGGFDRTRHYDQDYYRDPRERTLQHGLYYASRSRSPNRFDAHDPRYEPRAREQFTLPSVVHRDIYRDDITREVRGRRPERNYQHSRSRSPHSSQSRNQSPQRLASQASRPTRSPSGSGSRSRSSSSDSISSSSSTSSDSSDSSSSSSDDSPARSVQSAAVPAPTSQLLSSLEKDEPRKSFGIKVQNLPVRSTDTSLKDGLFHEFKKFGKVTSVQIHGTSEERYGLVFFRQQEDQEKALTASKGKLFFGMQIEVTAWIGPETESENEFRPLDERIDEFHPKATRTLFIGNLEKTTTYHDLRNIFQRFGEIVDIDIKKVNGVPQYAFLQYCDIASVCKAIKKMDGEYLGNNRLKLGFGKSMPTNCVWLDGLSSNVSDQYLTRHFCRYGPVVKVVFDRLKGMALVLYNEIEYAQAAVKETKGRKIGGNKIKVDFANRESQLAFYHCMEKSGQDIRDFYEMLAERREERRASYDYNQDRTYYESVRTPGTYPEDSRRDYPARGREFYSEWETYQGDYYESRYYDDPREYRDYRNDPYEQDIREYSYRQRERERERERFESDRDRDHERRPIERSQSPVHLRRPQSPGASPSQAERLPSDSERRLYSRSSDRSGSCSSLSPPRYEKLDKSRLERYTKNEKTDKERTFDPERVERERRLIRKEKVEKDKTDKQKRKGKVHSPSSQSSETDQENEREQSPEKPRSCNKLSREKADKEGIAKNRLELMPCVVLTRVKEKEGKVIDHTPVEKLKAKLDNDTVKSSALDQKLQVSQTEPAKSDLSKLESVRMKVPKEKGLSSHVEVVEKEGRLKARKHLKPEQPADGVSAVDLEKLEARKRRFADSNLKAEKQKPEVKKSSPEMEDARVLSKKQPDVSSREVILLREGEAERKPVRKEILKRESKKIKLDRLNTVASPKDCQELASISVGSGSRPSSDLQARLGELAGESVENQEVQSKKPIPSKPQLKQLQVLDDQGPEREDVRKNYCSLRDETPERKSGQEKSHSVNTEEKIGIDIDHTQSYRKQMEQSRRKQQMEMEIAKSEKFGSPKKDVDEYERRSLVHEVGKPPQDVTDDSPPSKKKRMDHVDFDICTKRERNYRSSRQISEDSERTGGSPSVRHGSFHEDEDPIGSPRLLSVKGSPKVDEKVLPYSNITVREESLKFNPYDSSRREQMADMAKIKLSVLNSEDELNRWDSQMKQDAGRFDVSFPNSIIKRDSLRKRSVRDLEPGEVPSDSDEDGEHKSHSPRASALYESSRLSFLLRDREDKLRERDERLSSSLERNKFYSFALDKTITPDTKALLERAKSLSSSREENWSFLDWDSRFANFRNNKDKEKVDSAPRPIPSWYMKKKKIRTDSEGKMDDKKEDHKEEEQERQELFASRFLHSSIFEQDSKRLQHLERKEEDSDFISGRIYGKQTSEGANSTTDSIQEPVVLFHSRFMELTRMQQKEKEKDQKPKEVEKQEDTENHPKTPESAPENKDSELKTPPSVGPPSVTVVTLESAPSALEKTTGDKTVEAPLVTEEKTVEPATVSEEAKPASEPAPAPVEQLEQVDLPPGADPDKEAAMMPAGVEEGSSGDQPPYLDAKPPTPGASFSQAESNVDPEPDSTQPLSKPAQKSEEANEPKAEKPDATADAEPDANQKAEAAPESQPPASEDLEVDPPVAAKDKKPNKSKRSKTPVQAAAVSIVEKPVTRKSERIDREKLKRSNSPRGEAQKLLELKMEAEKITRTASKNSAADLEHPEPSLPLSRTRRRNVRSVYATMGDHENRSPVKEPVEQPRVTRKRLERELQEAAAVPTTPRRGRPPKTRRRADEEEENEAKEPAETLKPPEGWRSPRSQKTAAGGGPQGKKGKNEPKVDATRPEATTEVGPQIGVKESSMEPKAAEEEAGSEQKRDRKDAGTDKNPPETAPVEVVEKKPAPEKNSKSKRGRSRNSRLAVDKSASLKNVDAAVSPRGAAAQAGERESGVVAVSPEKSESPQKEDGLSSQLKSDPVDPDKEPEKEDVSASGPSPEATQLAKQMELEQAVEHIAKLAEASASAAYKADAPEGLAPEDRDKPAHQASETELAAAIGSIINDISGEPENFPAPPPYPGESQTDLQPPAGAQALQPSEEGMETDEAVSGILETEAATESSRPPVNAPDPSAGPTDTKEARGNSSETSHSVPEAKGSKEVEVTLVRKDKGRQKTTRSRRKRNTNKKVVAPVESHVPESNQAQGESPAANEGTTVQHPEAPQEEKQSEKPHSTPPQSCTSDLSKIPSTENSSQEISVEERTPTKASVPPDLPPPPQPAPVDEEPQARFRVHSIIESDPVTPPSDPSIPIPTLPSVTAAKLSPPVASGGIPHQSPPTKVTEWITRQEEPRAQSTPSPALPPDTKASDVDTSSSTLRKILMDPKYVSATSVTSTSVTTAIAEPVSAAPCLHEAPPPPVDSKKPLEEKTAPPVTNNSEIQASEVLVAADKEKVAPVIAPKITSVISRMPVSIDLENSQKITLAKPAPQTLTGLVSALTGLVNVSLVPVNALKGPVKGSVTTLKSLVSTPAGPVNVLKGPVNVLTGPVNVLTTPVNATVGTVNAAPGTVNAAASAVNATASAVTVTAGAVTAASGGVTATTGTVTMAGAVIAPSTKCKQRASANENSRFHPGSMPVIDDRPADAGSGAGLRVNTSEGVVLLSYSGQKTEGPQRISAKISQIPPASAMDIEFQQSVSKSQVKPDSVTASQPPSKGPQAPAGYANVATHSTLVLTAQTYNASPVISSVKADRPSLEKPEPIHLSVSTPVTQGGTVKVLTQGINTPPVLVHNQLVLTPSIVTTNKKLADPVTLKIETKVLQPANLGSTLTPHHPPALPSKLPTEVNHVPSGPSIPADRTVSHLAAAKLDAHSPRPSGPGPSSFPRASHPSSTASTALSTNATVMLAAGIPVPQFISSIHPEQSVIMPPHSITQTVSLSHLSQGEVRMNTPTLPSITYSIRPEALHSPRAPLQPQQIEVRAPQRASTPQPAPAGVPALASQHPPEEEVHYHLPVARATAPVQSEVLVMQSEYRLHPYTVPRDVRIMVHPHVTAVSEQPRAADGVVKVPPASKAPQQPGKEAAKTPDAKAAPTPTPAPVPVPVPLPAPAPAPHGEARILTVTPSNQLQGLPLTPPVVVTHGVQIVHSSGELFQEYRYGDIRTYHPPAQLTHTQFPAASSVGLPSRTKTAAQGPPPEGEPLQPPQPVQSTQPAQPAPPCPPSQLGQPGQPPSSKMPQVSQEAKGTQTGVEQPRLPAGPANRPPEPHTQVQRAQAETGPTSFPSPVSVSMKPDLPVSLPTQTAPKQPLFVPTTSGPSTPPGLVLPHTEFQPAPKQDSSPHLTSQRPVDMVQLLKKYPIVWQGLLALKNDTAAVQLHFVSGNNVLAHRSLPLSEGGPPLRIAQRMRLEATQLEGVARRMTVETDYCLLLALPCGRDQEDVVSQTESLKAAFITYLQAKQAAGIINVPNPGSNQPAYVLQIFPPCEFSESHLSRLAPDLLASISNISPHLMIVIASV
# UniProt Q8N9Q2: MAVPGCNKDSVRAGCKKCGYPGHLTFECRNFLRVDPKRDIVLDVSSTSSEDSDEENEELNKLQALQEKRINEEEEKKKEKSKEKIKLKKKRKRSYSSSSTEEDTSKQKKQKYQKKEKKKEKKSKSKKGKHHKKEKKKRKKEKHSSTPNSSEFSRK
# UniProt Q9H8P0: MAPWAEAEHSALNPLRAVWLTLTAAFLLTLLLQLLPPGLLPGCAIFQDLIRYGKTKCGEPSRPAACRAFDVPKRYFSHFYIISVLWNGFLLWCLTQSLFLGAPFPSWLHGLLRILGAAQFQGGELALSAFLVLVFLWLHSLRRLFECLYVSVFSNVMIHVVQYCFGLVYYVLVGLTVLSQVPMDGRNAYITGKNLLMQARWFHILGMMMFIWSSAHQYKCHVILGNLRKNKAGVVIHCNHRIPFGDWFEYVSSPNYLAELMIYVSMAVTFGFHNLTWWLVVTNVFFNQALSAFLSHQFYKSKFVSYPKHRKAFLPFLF
# UniProt Q7Z6B7: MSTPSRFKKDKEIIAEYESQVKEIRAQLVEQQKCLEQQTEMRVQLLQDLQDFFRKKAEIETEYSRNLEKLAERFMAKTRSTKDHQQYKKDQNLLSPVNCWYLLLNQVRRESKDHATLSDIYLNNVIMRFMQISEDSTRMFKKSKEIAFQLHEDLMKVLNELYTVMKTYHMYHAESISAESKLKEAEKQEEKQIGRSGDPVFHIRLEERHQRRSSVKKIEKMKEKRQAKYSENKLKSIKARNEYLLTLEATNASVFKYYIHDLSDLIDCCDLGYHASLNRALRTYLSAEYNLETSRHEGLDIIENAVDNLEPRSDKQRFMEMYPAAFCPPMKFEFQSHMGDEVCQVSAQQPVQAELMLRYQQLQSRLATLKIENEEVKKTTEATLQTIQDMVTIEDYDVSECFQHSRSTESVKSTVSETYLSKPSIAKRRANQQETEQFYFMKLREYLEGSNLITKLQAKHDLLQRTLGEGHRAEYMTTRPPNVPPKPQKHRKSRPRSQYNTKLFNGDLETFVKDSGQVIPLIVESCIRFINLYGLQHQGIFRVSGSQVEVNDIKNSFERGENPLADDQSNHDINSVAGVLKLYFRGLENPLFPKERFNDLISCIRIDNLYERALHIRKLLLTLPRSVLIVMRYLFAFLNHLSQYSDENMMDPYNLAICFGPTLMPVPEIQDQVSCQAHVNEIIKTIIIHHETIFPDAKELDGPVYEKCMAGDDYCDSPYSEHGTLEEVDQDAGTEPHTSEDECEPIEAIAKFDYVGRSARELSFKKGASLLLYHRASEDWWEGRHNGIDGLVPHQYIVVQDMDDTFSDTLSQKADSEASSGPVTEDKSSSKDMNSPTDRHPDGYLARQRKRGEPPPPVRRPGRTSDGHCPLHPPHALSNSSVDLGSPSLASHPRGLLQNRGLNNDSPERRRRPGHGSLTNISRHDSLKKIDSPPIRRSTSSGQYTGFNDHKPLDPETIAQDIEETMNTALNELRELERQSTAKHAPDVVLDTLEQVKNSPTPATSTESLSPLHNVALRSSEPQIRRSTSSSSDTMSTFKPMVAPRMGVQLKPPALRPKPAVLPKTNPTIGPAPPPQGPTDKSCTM
# UniProt Q96EA4: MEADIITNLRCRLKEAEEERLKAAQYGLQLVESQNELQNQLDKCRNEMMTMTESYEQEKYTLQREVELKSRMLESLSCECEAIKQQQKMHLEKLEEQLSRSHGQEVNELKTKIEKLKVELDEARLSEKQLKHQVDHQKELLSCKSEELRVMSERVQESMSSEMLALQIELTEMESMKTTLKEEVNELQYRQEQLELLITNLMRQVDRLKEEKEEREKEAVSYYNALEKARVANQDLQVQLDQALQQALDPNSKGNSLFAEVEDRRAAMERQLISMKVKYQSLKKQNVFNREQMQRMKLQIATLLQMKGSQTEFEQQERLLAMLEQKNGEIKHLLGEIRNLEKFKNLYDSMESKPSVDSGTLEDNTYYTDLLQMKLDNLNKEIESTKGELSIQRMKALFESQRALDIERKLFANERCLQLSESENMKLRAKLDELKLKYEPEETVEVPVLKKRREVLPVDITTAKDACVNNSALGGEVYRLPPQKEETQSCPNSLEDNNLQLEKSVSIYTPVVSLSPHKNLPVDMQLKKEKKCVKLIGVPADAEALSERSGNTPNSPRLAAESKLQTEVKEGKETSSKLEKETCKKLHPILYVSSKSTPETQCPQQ
# Compound: Cc1cc(Nc2cc(CN3CCOCC3)c3nc(C)c(Cc4ccc(Cl)cc4F)n3n2)n[nH]1 [gandotinib]
# Experiment: log2 fold change, soluble protein after heating vs DMSO (PISA); higher = thermal stabilisation; K562 cells, 10 uM, 30 min; active = over 0.2 and 3.5 SD of the protein, either way, in both replicates (recomputed)
# Outline: (§1)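 Soluble protein was defined as the supernatant after 21,000xg for 90 min. It came from K562 cells at 2×10^6 cells/mL given 10 μM compound for 30 min, heated in aliquots for 3 min across 48°C-58°C, pooled, and extracted in PBS with 0.5% NP-40 at 4°C, and was quantified by TMTpro 16plex LC-MS/MS with equalised channel sums. Thermal stability against control samples, from duplicates, is reported as log2 fold change.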
row,Target,log2 fold change
1,SSBP4 (UniProt Q9BWG4),inactive: -0.121
2,SRBD1 (UniProt Q8N5C6),inactive: 0.146
3,SSB (UniProt E7ERC4),inactive: -0.352
4,SPIRE1 (UniProt Q08AE8),inactive: 0.344
5,STC2 (UniProt O76061),inactive: 0.119
6,STAB1 (UniProt Q9NY15),inactive: -0.269
7,SPEN (UniProt Q96T58),inactive: 0.049
8,SREK1IP1 (UniProt Q8N9Q2),inactive: 0.113
9,SRCAP (UniProt Q6ZRS2),inactive: -0.069
10,SRD5A3 (UniProt Q9H8P0),inactive: 0.322
11,ST8SIA6 (UniProt P61647),inactive: -0.038
12,STIP1 (UniProt H0YGI8),inactive: -0.037
13,SRCIN1 (UniProt Q9C0H9),inactive: 0
14,SSBP3 (UniProt Q9BWW4),inactive: 0.043
15,SS18 (UniProt Q15532),inactive: -0.123
16,SQOR (UniProt Q9Y6N5),inactive: -0.084
17,SSBP2 (UniProt P81877),inactive: -0.029
18,SPICE1 (UniProt Q8N0Z3),inactive: 0.137
19,SPATA33 isoform 2 (UniProt Q96N06),inactive: 0.002
20,SRGAP1 (UniProt Q7Z6B7),inactive: -0.002
21,SPATS2 (UniProt Q86XZ4),inactive: 0.255

# Compound: Cc1cc(Nc2cc(N3CCN(C)CC3)nc(Sc3ccc(NC(=O)C4CC4)cc3)n2)n[nH]1 [tozasertib]
# Experiment: as above
# Outline: as §1
row,Target,log2 fold change
1,SPP2 (UniProt Q13103),inactive: 0.018
2,ST3GAL4 isoform 4 (UniProt Q11206),inactive: -0.007
3,SPEN (UniProt Q96T58),inactive: -0.114
4,SREK1IP1 (UniProt Q8N9Q2),inactive: 0.043
5,SPDL1 (UniProt Q96EA4),inactive: 0.015
6,STIM2 isoform 2 (UniProt Q9P246),inactive: 0.069
7,SSBP3 (UniProt Q9BWW4),inactive: 0.016
8,SS18 (UniProt Q15532),inactive: -0.194
9,SPATA33 isoform 2 (UniProt Q96N06),inactive: -0.039
10,SRGAP1 (UniProt Q7Z6B7),inactive: -0.184

# Compound: Cc1cc(SCc2sc(-c3ccc(C(F)(F)F)cc3)nc2C)ccc1OCC(=O)O
# Experiment: as above
# Outline: as §1
row,Target,log2 fold change
1,SPP2 (UniProt Q13103),inactive: -0.303
2,SSBP4 (UniProt Q9BWG4),inactive: 0.123
3,SSB (UniProt E7ERC4),inactive: 0.337
4,ST3GAL1 (UniProt Q11201),inactive: 0.078
5,STAB1 (UniProt Q9NY15),inactive: -0.195
6,SPEN (UniProt Q96T58),inactive: -0.199
7,SREK1IP1 (UniProt Q8N9Q2),inactive: 0.03
8,SREBF1 isoform 4 (UniProt P36956),inactive: 0.089
9,SPDL1 (UniProt Q96EA4),inactive: 0.062
10,SRCAP (UniProt Q6ZRS2),inactive: -0.035
11,SSBP3 (UniProt Q9BWW4),inactive: 0.009
12,SS18 (UniProt Q15532),inactive: 0.051
13,SQOR (UniProt Q9Y6N5),inactive: -0.155
14,STARD10 (UniProt Q9Y365),inactive: 0.127
15,SPATA33 isoform 2 (UniProt Q96N06),inactive: 0.038
16,SPATS2L isoform 3 (UniProt Q9NUQ6),inactive: -0.141
17,SPATS2 (UniProt Q86XZ4),inactive: 0.166

# Compound: Cc1ccc(-n2nc(C(C)(C)C)cc2NC(=O)Nc2ccc(OCCN3CCOCC3)c3ccccc23)cc1 [doramapimod]
# Experiment: as above
# Outline: as §1
row,Target,log2 fold change
1,SSBP4 (UniProt Q9BWG4),inactive: 0.103
2,SPIRE1 (UniProt Q08AE8),inactive: 0.096
3,STAB1 (UniProt Q9NY15),inactive: 0.061
4,STK16 (UniProt O75716),inactive: -0.092
5,SREBF1 isoform 4 (UniProt P36956),inactive: 0.098
6,STK17B (UniProt O94768),inactive: -0.085
7,SPIN4 (UniProt Q56A73),inactive: -0.213
8,SRCAP (UniProt Q6ZRS2),inactive: 0.051
9,SRD5A3 (UniProt Q9H8P0),inactive: -0.254
10,ST8SIA6 (UniProt P61647),inactive: 0.114
11,SRGAP1 (UniProt Q7Z6B7),inactive: 0.029

# Compound: Cc1ccc(C(=O)N(CCCN)[C@@H](c2nc3cc(Cl)ccc3c(=O)n2Cc2ccccc2)C(C)C)cc1 [ispinesib]
# Experiment: as above
# Outline: as §1
row,Target,log2 fold change
1,SSBP4 (UniProt Q9BWG4),inactive: 0.148
2,SPIRE1 (UniProt Q08AE8),inactive: -0.073
3,STC2 (UniProt O76061),inactive: 0.222
4,STAB1 (UniProt Q9NY15),inactive: -0.181
5,SPEN (UniProt Q96T58),inactive: -0.065
6,SREK1IP1 (UniProt Q8N9Q2),inactive: 0.011
7,SPDL1 (UniProt Q96EA4),inactive: -0.255
8,SPRED1 (UniProt Q7Z699),inactive: 0.199
9,SRCAP (UniProt Q6ZRS2),inactive: 0
10,SRD5A3 (UniProt Q9H8P0),inactive: -0.537
11,SRCIN1 (UniProt Q9C0H9),inactive: -0.204
12,SSBP3 (UniProt Q9BWW4),inactive: 0.199
13,SS18 (UniProt Q15532),inactive: 0.386
14,SSBP2 (UniProt P81877),inactive: 0.062
15,SPATA33 isoform 2 (UniProt Q96N06),inactive: 0.124
16,SRGAP1 (UniProt Q7Z6B7),inactive: 0.001
17,STAR (UniProt P49675),inactive: -0.127
18,STK19 (UniProt P49842),inactive: -0.083

# Source: the supplement of paper PMC10849652
